For at least one entry, the source does not settle the construct or the ends of the probe. For part of these data: At least one result comes from cells or an extract, where the contact may be indirect. For part of these data: At least one verdict rests on a figure or table, not on a statement of the authors. For part of these data: Tags and fusion partners may be left off the protein sequences shown.
Experiments:
[1] = target: rMATR3 mPRI-RRMs (UniProt P43243); assay: UV crosslinking competition; conditions: recombinant protein, residues 341-592, label: 32P-UTP
[2] = target: endogenous PTBP1 (human (HeLa)) (UniProt P26599); assay: UV crosslinking; conditions: HeLa nuclear extract 20%, prevented by excess RRMs or mPRI-RRMs, 30 C 20 min, 10 fmol RNA, UV crosslink on ice (1920 mJ), RNase A1/T1 digestion, 15% denaturing PAGE, salt and pH not stated, protein in an extract, label: 32P-UTP
[3] = target: rPTBP1 (UniProt P26599); assay: UV crosslinking; conditions: 0.5 uM rPTBP1, 10 fmol RNA, rMATR3 titrated 0-2 uM, 30 C 20 min, UV crosslink on ice (1920 mJ), RNase A1/T1 digestion, 15% denaturing PAGE, salt and pH not stated, recombinant protein, protein details: N-terminal His, label: 32P-UTP
[4] = target: T1, rMATR3 RRMs (UniProt P43243); assay: UV crosslinking competition; conditions: 0.5 uM in HeLa nuclear extract, prevents endogenous PTBP1 crosslinking; recombinant protein; residues 362-592; label: 32P-UTP
T1 sequence (looked up): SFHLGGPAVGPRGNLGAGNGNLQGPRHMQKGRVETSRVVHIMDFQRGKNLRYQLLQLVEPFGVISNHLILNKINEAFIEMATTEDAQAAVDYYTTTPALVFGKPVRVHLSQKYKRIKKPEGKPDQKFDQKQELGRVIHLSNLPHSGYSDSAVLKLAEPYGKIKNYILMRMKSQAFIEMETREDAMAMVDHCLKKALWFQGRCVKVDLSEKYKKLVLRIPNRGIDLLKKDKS

Chains of the proteins cited; added tags and fusions are not shown. Lines headed by an entry give the natural chain unless they say otherwise; changes in a name come on top.
UniProt P26599: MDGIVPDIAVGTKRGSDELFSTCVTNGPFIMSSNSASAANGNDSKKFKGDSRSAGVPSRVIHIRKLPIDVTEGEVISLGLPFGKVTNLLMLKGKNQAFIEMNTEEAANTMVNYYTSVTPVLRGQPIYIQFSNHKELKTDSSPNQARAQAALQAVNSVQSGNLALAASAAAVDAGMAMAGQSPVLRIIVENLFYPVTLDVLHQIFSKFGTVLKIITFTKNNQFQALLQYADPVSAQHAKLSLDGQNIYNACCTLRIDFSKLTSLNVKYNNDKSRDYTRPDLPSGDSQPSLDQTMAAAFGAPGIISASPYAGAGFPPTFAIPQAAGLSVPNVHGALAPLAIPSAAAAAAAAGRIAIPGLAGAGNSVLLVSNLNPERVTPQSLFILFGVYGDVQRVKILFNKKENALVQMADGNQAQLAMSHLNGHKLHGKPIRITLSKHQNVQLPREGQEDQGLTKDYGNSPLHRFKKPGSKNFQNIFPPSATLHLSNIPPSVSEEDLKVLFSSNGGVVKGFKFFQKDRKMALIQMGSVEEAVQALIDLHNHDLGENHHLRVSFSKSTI

Measured: binding result

GAAUACGAAUUCCAUAUAUGAUCGAUAAAUAUAUGGUACCUUGCUAUCUUACAUCUUUUUACGGAUCCCAUAUAUGAUCGAUAUAUAUAAGCU [ATCTT2 RNA probe]
binds: [1]; competes with 0.5 uM rPTBP1 at equimolar concentration | [2]; increased by PRI-RRMs (0.5 uM) | [3]

GAAUACGAAUUCCCUCUUUGAAUCGAUAACUCUUUGGUACCCCUCUUUGAUCGAUAACUCUUUGGAUCCCCUCUUUGAUCGAUCUCUUUAAGCUU [CTCTT6 RNA probe]
binds: [1]; 0.5 uM in HeLa nuclear extract, prevents endogenous PTBP1 crosslinking | [4] | [2]; preserved with PRI-RRMs (0.5 uM)

— article PMC6108849
